According to the supplement of paper PMC10849652:
Some of the results follow.

The chains behind the UniProt entries cited, without tags or fusion partners. Where a name states a change or a piece, a line headed by the entry shows the natural chain unless it says otherwise.
UniProt P10620: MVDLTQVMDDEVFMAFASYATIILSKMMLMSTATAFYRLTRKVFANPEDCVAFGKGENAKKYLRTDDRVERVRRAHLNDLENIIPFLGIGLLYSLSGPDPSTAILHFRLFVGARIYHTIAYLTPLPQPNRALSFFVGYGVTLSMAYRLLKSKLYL
UniProt Q9H3L0: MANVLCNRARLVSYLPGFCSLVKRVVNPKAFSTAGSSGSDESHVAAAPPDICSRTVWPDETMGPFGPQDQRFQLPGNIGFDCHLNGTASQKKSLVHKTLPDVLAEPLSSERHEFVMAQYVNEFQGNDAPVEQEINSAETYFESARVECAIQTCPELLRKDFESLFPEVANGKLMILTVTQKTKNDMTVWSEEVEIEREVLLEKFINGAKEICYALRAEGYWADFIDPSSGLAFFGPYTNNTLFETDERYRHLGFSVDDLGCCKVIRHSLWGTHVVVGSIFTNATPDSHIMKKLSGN
UniProt Q99735: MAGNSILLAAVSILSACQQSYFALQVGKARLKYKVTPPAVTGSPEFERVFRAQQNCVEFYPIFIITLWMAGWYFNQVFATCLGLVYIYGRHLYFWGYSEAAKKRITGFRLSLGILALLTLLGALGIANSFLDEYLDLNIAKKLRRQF
UniProt O94851, whole entry, looked up: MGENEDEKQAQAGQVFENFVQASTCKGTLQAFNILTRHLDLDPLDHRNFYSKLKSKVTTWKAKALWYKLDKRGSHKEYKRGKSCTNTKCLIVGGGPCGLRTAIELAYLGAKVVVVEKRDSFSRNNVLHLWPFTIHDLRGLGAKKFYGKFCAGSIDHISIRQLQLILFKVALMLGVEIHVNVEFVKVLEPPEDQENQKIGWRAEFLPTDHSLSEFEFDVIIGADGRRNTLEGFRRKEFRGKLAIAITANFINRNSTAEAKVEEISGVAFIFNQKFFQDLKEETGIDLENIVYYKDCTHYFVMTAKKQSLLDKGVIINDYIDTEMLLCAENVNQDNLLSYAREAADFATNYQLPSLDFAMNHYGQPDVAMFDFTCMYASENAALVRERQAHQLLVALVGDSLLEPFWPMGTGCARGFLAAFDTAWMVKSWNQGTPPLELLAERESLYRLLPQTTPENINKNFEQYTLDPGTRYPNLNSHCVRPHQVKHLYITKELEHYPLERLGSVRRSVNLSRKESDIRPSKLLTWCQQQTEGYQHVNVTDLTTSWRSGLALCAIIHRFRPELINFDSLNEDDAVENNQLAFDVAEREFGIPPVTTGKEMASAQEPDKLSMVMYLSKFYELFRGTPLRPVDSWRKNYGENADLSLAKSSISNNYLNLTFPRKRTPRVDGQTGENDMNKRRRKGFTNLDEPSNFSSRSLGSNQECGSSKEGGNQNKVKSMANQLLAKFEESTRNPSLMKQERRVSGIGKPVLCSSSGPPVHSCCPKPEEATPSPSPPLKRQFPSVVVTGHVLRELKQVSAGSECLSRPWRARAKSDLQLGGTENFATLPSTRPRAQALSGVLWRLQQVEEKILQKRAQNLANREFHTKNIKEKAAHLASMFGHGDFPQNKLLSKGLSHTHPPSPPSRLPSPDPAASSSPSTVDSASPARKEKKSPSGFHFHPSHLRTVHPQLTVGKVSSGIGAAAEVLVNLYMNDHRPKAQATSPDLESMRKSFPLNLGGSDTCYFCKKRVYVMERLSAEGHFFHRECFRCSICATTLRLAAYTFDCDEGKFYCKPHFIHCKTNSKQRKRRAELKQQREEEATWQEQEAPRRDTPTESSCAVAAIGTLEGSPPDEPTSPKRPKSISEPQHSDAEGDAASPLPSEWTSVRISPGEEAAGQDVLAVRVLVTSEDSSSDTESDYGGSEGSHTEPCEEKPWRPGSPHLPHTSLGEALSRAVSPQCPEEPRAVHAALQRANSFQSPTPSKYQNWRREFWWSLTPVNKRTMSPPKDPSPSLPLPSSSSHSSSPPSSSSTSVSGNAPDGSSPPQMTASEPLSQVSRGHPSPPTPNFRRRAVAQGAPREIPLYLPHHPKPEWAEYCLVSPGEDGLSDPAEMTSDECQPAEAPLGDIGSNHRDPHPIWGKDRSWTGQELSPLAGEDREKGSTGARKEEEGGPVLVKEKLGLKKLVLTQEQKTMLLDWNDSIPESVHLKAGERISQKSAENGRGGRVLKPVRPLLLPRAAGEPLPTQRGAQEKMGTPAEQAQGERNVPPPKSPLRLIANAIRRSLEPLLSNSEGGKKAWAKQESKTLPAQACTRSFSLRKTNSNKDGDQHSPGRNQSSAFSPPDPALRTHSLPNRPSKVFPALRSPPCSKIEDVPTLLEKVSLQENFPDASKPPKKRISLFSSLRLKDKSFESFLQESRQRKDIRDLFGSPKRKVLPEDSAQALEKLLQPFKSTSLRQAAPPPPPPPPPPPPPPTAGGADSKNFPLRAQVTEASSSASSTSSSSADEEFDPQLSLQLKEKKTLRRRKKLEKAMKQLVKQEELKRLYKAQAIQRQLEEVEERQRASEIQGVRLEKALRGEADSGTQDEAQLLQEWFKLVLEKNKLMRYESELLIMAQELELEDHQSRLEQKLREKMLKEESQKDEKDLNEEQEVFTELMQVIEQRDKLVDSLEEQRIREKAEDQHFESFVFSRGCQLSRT
UniProt P29372, whole entry, looked up: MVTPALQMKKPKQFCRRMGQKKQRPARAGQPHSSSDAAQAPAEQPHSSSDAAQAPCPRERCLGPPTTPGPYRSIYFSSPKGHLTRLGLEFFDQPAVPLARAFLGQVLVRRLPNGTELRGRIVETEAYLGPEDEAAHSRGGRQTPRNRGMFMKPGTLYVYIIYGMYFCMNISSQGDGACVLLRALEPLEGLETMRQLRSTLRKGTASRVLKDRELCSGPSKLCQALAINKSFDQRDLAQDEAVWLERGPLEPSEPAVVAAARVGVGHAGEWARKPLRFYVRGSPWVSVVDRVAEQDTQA
UniProt Q9Y3A3: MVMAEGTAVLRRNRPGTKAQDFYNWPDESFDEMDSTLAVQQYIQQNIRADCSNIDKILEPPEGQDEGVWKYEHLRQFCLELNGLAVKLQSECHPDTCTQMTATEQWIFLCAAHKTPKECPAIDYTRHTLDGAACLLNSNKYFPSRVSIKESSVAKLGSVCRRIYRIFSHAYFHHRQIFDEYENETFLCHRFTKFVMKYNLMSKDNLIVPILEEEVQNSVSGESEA
UniProt Q99797: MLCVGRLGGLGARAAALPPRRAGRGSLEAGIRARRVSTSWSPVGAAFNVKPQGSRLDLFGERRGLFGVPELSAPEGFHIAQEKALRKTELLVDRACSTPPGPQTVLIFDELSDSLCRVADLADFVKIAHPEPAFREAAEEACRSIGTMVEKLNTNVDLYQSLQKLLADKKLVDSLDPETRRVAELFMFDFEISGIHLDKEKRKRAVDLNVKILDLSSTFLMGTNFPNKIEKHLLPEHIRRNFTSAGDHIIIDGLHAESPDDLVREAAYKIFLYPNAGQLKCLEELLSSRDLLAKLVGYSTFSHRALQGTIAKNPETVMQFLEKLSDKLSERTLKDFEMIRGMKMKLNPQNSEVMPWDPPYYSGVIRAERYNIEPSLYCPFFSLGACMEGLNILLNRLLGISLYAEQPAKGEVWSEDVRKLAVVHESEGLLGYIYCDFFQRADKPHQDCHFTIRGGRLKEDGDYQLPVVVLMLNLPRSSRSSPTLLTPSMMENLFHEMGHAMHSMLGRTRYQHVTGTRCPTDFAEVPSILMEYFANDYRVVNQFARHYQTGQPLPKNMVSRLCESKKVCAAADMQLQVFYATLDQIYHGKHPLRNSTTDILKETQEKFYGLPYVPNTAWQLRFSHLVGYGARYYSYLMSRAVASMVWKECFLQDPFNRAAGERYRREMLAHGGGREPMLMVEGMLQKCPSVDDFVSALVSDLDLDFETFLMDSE
UniProt Q14149: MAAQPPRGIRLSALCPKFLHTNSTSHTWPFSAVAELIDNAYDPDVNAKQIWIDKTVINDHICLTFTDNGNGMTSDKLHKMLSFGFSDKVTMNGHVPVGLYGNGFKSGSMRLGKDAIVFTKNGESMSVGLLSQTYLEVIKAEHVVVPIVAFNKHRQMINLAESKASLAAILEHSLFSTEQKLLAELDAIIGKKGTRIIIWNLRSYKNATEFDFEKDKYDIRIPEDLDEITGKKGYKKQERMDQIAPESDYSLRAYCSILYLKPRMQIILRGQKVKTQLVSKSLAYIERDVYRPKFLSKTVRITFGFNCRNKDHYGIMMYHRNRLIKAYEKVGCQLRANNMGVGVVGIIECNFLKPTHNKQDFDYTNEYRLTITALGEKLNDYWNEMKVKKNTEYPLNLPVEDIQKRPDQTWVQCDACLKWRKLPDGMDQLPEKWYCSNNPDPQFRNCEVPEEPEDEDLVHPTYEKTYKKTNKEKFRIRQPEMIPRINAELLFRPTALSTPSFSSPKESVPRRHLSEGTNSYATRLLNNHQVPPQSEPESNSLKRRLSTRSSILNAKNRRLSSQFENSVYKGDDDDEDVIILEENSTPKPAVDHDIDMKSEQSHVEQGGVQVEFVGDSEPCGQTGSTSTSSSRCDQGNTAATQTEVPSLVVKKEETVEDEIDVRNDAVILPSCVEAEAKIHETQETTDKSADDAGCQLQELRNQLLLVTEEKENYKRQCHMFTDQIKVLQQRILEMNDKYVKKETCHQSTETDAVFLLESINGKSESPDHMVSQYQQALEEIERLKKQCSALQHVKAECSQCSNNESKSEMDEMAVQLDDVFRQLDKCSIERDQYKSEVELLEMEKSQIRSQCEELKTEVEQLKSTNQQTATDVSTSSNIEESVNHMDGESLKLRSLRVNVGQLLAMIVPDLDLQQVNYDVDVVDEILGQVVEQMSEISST
UniProt P50219: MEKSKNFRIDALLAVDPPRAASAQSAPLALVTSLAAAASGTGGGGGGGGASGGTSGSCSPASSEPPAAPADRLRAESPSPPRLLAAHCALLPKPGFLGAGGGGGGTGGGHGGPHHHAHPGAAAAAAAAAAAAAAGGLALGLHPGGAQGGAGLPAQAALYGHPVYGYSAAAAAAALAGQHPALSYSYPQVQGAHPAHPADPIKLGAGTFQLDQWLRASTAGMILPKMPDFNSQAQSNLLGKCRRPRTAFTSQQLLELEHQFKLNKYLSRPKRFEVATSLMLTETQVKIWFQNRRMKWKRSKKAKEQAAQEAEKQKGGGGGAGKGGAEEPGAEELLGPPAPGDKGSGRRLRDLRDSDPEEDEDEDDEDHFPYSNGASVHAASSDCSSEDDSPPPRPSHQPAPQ
UniProt P49959: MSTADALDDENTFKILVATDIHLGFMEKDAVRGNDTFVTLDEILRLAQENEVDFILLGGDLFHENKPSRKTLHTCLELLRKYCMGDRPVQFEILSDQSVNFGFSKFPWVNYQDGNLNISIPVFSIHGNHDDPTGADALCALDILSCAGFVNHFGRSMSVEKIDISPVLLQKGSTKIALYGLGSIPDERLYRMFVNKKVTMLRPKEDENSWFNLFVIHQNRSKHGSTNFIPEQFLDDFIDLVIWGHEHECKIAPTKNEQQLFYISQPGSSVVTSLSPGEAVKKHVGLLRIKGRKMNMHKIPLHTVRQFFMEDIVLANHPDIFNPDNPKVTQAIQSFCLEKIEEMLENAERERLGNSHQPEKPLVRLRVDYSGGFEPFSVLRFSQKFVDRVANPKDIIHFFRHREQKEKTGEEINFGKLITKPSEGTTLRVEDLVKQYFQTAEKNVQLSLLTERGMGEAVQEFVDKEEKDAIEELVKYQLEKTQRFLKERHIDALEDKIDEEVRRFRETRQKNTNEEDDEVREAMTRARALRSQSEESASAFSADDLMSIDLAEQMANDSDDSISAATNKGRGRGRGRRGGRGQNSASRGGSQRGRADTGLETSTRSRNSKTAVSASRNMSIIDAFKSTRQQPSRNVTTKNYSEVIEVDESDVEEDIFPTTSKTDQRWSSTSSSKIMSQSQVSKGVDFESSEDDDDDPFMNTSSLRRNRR
UniProt Q9NV56, whole entry, looked up: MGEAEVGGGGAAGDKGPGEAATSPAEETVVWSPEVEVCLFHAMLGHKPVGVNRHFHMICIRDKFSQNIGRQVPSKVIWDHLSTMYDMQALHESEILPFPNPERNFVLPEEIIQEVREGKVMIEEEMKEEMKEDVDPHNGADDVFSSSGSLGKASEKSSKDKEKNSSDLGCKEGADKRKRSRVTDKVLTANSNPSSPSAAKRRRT
UniProt O60291: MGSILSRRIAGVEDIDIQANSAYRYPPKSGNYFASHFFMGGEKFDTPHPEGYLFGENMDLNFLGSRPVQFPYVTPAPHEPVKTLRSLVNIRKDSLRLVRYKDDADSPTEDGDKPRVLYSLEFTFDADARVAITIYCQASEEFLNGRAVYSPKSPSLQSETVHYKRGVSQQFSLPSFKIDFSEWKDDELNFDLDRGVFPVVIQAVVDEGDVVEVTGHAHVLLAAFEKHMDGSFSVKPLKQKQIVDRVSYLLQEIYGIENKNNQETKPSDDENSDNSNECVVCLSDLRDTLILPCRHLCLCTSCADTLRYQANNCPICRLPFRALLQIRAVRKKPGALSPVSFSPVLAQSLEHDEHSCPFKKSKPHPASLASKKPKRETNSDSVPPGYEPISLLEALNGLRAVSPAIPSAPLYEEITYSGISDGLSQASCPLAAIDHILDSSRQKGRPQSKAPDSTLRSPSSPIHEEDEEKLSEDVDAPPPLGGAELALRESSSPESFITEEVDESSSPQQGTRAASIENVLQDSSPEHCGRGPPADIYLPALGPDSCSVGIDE

What follows are targets tested with CCn1cc(-c2ccnc3[nH]c(-c4cccc(CN(C)C)c4)cc23)c(-c2ccc(NC(=O)N(C)C)cc2)n1 (assay: log2 fold change, soluble protein after heating vs DMSO (PISA); higher = thermal stabilisation; K562 lysate, 10 uM; active = over 0.2 and 3.5 SD of the protein, either way, in both replicates (recomputed)).
Outline: (§1)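 The values are log-two fold changes in thermal stability compared with solvent controls and come from duplicates. They were obtained by TMTpro 16plex LC-MS/MS, with channel sums equalised, on the supernatant after 21,000xg for 90 min. That supernatant came from crude K562 extract at 1 mg/mL protein treated with 10 μM compound for 30 min, heated for 3 min across 48°C-58°C, pooled and brought to 0.5% NP-40 at 4°C.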

Target	log2 fold change
MKLN1 (UniProt Q9UL63)	inactive: 0.049
MICAL3 (UniProt Q7RTP6)	inactive: -0.002
MGST1 (UniProt P10620)	active: 0.279
MMADHC (UniProt Q9H3L0)	inactive: 0.057
MON1B (UniProt Q7L1V2)	inactive: -0.025
MOSPD2 (UniProt Q8NHP6)	inactive: -0.054
MON2 isoform 5 (UniProt Q7Z3U7)	inactive: -0.07
MGST2 (UniProt Q99735)	inactive: 0.08
MICAL2 (UniProt O94851)	inactive: -0.094
MOCOS (UniProt Q96EN8)	inactive: -0.039
MPG (UniProt P29372)	inactive: 0.01
MRPL1 (UniProt Q9BYD6)	inactive: 0.013
MRAS (UniProt O14807)	inactive: 0.217
MOB4 (UniProt Q9Y3A3)	inactive: -0.001
MIPEP (UniProt Q99797)	inactive: -0.05
MLST8 (UniProt Q9BVC4)	inactive: -0.03
MORC3 (UniProt Q14149)	inactive: -0.007
MPV17 (UniProt P39210)	inactive: -0.102

Target	log2 fold change
MICU2 (UniProt Q8IYU8)	inactive: 0.013
MOB3B (UniProt Q86TA1)	inactive: 0.161
MGA (UniProt Q8IWI9)	inactive: 0.07
MNX1 (UniProt P50219)	inactive: -0.153
MRE11 isoform 3 (UniProt P49959)	inactive: 0.012
MRPL2 (UniProt Q5T653)	inactive: -0.077
MPLKIP (UniProt Q8TAP9)	inactive: -0.213
MMS22L (UniProt Q6ZRQ5)	inactive: 0.077
MRGBP (UniProt Q9NV56)	inactive: -0.104
MOCS2 (UniProt O96007)	inactive: 0.093
MKRN3 (UniProt Q13064)	inactive: 0.036
MGRN1 isoform 2 (UniProt O60291)	inactive: 0.026
MIF4GD isoform 3 (UniProt A9UHW6)	inactive: 0.028
MNT (UniProt Q99583)	inactive: 0.012
MKI67 (UniProt P46013)	inactive: -0.014
MOCS1 isoform 8 (UniProt Q9NZB8)	inactive: -0.063
MRM1 (UniProt Q6IN84)	inactive: -0.034
MITD1 (UniProt Q8WV92)	inactive: -0.269

What follows are targets tested with CN1CCC(CNc2ccc3ncc(-c4cccc(OC(F)(F)F)c4)n3n2)CC1 in the same assay as above.
Outline: as §1

Target	log2 fold change
MKLN1 (UniProt Q9UL63)	inactive: 0.029
MICAL3 (UniProt Q7RTP6)	inactive: 0.027
MGST1 (UniProt P10620)	inactive: -0.069
MMADHC (UniProt Q9H3L0)	inactive: -0.01
MON1B (UniProt Q7L1V2)	inactive: 0.056
MOSPD2 (UniProt Q8NHP6)	inactive: 0.004
MON2 isoform 5 (UniProt Q7Z3U7)	inactive: 0.062
MGST2 (UniProt Q99735)	inactive: 0.071
MICAL2 (UniProt O94851)	inactive: 0.047
MOCOS (UniProt Q96EN8)	inactive: 0.03
MPG (UniProt P29372)	inactive: -0.096
MRPL1 (UniProt Q9BYD6)	inactive: 0
MRAS (UniProt O14807)	inactive: -0.061
MOB4 (UniProt Q9Y3A3)	inactive: 0.025
MIPEP (UniProt Q99797)	inactive: -0.015
MLST8 (UniProt Q9BVC4)	inactive: 0.012
MORC3 (UniProt Q14149)	inactive: -0.055
MPV17 (UniProt P39210)	inactive: -0.02

Target	log2 fold change
MICU2 (UniProt Q8IYU8)	inactive: -0.101
MOB3B (UniProt Q86TA1)	inactive: -0.082
MGA (UniProt Q8IWI9)	inactive: -0.004
MNX1 (UniProt P50219)	inactive: 0.058
MRE11 isoform 3 (UniProt P49959)	inactive: 0.009
MRPL2 (UniProt Q5T653)	inactive: 0.041
MPLKIP (UniProt Q8TAP9)	inactive: 0.183
MMS22L (UniProt Q6ZRQ5)	inactive: -0.083
MRGBP (UniProt Q9NV56)	inactive: 0.079
MOCS2 (UniProt O96007)	inactive: -0.008
MKRN3 (UniProt Q13064)	inactive: 0.011
MGRN1 isoform 2 (UniProt O60291)	inactive: -0.043
MIF4GD isoform 3 (UniProt A9UHW6)	inactive: 0.015
MNT (UniProt Q99583)	inactive: 0.044
MKI67 (UniProt P46013)	inactive: 0
MOCS1 isoform 8 (UniProt Q9NZB8)	inactive: -0.013
MRM1 (UniProt Q6IN84)	inactive: 0.002
MITD1 (UniProt Q8WV92)	inactive: -0.163
